According to the supplement of paper PMC10849652:
This is one part of the list.

By UniProt entry, the sequences of proteins in these tests, tags left out. Where a name states a change or a piece, a line headed by the entry shows the natural chain unless it says otherwise.
UniProt Q9H6Q4: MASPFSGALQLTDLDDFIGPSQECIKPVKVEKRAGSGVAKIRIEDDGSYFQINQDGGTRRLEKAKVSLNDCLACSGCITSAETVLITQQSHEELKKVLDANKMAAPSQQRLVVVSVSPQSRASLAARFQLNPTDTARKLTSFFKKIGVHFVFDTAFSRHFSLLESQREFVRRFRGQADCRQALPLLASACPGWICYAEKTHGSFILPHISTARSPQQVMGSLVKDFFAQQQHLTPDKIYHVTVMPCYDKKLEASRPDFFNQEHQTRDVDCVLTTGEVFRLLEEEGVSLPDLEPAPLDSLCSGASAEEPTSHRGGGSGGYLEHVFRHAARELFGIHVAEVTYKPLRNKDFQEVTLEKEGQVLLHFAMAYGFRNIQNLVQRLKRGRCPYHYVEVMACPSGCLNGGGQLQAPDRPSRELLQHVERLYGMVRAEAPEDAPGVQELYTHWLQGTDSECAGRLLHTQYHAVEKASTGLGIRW
UniProt Q9UIV1, whole entry, looked up: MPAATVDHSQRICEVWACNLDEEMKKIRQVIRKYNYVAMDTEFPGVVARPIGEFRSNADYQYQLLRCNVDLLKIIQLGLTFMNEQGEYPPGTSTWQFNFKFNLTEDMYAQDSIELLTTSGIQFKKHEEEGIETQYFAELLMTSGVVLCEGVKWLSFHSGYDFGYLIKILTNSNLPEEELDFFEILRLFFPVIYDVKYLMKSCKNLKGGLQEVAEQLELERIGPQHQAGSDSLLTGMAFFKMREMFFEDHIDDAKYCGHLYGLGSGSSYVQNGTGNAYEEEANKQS
UniProt P30622: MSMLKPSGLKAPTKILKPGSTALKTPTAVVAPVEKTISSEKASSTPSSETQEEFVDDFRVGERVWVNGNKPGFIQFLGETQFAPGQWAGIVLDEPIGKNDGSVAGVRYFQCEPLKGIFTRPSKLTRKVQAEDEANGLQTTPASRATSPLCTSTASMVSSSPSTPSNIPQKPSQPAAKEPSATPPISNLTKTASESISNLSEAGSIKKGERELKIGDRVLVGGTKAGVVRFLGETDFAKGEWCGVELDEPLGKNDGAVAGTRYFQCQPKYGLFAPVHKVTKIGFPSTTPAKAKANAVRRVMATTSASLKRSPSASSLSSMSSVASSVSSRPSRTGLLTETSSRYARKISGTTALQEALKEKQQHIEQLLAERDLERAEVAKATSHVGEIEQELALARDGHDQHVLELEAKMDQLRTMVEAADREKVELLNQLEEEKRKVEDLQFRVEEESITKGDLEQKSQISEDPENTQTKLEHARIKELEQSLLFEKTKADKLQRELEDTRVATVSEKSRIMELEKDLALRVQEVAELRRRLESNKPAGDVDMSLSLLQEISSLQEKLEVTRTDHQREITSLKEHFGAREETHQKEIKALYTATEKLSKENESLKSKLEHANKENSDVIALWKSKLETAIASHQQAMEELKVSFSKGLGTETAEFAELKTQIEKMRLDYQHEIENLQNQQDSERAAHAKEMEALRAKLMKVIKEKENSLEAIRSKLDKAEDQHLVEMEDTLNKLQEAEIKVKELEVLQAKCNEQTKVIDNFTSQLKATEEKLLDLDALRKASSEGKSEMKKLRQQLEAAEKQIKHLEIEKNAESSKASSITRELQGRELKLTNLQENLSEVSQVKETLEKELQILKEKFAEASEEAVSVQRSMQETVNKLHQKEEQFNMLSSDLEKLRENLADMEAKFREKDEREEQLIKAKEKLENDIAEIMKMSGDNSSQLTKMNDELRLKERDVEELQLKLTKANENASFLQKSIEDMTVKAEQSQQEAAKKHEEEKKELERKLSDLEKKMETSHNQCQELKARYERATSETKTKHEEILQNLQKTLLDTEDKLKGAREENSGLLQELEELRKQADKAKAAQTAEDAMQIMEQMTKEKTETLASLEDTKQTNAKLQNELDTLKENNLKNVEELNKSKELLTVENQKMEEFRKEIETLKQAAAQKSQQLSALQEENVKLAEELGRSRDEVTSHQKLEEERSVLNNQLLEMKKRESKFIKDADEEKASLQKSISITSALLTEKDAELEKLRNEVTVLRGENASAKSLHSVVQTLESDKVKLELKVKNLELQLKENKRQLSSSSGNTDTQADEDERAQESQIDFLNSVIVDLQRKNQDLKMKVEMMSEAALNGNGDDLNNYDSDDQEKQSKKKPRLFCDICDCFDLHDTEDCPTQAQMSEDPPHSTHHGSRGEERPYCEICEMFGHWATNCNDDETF
UniProt Q96S66: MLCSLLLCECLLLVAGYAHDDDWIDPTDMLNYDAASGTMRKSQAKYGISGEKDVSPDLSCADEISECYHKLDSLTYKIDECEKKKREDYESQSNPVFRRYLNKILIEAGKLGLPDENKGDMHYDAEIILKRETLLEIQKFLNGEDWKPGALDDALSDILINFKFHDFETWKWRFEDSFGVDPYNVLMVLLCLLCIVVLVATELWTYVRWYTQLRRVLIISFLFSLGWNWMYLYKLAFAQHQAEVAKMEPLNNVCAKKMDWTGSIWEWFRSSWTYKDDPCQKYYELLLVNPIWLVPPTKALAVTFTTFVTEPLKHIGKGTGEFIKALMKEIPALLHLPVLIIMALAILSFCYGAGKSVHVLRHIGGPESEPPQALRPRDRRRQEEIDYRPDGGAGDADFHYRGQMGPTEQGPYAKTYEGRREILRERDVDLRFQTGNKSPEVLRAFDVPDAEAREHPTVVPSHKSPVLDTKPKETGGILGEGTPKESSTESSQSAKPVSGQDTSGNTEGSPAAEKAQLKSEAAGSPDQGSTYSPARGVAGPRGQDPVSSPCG
UniProt Q9BW66: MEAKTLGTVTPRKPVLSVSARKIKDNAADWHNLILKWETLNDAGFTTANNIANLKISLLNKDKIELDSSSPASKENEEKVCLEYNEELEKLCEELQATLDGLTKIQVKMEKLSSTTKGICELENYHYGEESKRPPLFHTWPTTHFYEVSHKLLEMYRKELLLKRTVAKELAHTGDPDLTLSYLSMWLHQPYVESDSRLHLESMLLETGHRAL
UniProt Q99439: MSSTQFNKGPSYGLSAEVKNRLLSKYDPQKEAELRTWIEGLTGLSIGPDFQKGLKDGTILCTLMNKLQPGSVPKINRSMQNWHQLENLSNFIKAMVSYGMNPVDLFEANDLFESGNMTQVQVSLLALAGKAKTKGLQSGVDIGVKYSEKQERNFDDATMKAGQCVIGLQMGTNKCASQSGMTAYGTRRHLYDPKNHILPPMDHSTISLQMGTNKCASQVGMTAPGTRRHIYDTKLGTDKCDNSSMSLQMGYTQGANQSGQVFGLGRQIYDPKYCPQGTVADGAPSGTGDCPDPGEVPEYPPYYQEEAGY
UniProt Q7Z460: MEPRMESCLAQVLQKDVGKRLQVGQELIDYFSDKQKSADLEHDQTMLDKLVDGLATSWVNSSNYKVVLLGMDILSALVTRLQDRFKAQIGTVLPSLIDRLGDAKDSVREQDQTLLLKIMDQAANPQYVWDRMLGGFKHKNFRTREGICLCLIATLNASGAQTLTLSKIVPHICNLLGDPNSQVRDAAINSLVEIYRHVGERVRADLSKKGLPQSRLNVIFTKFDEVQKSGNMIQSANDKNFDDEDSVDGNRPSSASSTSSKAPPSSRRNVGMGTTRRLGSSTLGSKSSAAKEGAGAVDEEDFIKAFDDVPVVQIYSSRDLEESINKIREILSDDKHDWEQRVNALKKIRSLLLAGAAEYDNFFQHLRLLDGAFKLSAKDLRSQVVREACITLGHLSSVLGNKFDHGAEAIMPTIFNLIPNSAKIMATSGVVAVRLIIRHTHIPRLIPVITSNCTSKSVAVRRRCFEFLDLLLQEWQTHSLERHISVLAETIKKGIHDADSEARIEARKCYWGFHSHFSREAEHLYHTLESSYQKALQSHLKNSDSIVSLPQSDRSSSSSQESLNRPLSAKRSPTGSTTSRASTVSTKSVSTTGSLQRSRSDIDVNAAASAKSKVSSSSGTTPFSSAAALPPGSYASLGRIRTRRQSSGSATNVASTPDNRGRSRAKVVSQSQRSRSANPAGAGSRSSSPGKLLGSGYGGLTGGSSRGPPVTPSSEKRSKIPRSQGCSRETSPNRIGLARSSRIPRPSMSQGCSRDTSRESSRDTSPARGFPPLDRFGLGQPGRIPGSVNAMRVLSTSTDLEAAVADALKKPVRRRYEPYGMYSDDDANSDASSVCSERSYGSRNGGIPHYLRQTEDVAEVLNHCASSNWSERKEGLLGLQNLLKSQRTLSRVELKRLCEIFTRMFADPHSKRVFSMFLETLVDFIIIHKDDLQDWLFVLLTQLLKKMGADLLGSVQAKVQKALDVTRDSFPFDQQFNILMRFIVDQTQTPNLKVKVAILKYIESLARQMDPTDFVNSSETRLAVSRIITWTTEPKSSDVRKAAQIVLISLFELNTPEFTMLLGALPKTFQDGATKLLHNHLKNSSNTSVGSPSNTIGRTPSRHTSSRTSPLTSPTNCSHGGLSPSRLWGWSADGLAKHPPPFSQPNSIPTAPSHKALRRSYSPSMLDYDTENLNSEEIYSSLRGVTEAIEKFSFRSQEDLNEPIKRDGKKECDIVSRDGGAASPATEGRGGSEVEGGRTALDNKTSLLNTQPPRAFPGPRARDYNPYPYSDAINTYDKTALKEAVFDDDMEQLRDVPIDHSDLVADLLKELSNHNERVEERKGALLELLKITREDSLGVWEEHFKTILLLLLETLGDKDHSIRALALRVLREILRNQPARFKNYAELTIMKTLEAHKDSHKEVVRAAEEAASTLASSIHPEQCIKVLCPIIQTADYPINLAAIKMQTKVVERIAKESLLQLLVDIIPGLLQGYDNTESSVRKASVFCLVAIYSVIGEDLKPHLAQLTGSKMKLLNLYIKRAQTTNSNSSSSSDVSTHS
UniProt O15247: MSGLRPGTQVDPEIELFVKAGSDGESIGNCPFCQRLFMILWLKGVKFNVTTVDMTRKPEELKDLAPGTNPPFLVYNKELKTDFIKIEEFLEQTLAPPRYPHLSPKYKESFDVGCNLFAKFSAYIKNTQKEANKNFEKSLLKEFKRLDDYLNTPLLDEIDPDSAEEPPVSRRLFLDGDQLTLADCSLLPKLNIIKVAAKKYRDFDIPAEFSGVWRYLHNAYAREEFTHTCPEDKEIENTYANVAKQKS
UniProt P54105: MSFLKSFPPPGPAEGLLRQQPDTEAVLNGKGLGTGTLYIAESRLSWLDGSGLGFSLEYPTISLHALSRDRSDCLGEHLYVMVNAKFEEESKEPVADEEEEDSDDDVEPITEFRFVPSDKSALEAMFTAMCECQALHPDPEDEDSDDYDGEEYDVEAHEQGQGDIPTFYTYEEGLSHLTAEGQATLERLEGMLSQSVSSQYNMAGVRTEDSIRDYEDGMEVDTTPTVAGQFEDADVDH
UniProt Q9NY35: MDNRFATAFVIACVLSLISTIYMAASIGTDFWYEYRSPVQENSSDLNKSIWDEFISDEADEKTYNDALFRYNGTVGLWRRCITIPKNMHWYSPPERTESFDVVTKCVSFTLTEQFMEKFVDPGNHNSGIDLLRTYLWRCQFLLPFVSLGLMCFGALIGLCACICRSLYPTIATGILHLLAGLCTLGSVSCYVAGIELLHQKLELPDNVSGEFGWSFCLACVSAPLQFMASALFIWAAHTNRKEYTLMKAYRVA
UniProt Q8IZ52: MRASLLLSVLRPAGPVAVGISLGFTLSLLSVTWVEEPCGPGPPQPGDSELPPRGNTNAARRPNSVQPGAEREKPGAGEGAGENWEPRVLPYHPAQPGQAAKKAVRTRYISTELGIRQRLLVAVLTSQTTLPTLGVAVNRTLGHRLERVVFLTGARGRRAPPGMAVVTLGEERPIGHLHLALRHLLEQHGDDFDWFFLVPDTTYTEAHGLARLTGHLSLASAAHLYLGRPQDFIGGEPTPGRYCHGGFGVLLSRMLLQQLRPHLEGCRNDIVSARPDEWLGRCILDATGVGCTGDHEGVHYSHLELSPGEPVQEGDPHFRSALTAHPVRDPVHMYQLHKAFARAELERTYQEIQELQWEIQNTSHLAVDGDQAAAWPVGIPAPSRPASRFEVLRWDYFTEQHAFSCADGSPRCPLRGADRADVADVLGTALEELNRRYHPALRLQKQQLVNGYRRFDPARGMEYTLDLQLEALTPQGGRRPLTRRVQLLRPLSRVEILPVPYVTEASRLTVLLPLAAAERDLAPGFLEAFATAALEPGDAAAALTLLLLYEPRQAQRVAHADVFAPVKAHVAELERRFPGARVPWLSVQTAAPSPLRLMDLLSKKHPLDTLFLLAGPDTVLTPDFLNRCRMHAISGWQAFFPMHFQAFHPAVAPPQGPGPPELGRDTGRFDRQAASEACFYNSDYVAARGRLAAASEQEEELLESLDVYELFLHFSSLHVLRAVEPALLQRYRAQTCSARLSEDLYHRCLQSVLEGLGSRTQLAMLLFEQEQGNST
UniProt Q9NX76: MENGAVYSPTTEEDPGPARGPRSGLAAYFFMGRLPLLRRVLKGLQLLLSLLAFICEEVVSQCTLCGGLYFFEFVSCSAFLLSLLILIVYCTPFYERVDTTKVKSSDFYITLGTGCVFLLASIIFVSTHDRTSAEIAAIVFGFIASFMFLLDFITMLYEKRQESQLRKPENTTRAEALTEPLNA

Legend:
Assay in all cases: log2 fold change, soluble protein after heating vs DMSO (PISA); higher = thermal stabilisation; K562 cells, 10 uM, 30 min; active = over 0.2 and 3.5 SD of the protein, either way, in both replicates (recomputed)
[1] = compound: C1=CC=C(C=C1)[C@H](COC2=CC3=C(C=C2)NC(=O)N3)NC(=O)C4=CC=CN(C4=O)CC5=CC(=C(C=C5)F)F
In short: (§1)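 K562 cells at 2×10^6 cells/mL were given 10 μM compound for 30 min. Aliquots then went through 3 min of heating across 48°C-58°C, were pooled, and were extracted in PBS with 0.5% NP-40 at 4°C, and the supernatant after 21,000xg for 90 min was quantified by TMTpro 16plex LC-MS/MS with channel sums equalised. Thermal stability relative to control samples, from duplicates, is given as log2 fold change.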

[2] = compound: CC1=C(SC2=C1C(=N[C@H](C3=NN=C(N32)C)CC(=O)N)C4=CC=C(C=C4)Cl)C
In short: as §1

[3] = compound: CC1=C2C(=CC=C1)N=C(N(C2=O)C3=CC=CC=C3C)CN4C=NC5=C(N=CN=C54)N
In short: as §1

[4] = compound: Cc1sc2c(c1C)C(c1ccc(Cl)cc1)=N[C@@H](CC(=O)OC(C)(C)C)c1nnc(C)n1-2
In short: as §1

[5] = compound: c1ccc([C@@H]2C[C@H]2NC2CCNCC2)cc1
In short: as §1

Measured: log2 fold change

CIAO3 (UniProt Q9H6Q4)
inactive: [1] 0.007 | [2] 0.079 | [3] 0.033 | [4] -0.034 | [5] -0.051

CLCN3 (UniProt P51790)
inactive: [1] 0.01 | [2] 0.025 | [3] 0.064 | [4] -0.107 | [5] 0.056

CNTNAP4 (UniProt Q9C0A0)
inactive: [1] 0.132 | [2] -0.263 | [3] -0.19 | [4] 0.256 | [5] 0.005

COA7 (UniProt Q96BR5)
inactive: [1] -0.007 | [2] -0.021 | [3] -0.022 | [4] -0.038 | [5] 0.049

CNOT7 (UniProt Q9UIV1)
inactive: [1] -0.024 | [2] -0.053 | [3] 0.068 | [4] -0.032 | [5] 0.002

CLCN6 isoform 5 (UniProt P51797)
inactive: [1] 0.102 | [2] -0.316 | [3] 0.027 | [5] -0.134

CISD2 (UniProt Q8N5K1)
inactive: [1] 0.027 | [2] -0.028 | [3] 0.011 | [4] -0.013 | [5] 0.015

CLIP1 isoform 2 (UniProt P30622)
inactive: [1] 0.044 | [2] 0.027 | [3] 0.073 | [5] -0.047

CLCC1 (UniProt Q96S66)
inactive: [1] 0.014 | [2] 0.07 | [3] 0.026 | [4] -0.012 | [5] -0.002

CINP isoform 3 (UniProt Q9BW66)
inactive: [1] 0.087 | [2] 0.012 | [3] -0.001 | [4] 0.016 | [5] 0

CNN2 (UniProt Q99439)
inactive: [1] -0.061 | [2] 0.011 | [3] 0.039 | [4] 0.007 | [5] 0.01

COASY isoform 2 (UniProt Q13057)
inactive: [1] -0.03 | [2] 0.054 | [3] 0.053 | [4] -0.037 | [5] -0.021

CLASP1 (UniProt Q7Z460)
inactive: [1] -0.039 | [2] -0.002 | [3] 0.079 | [4] 0 | [5] -0.044

CNNM2 (UniProt Q9H8M5)
inactive: [1] -0.094 | [2] -0.21 | [3] -0.043 | [4] -0.191 | [5] 0.136

CLIC2 (UniProt O15247)
inactive: [1] -0.057 | [2] 0.037 | [3] 0.115 | [4] -0.032 | [5] -0.019

CLNS1A (UniProt P54105)
inactive: [1] 0.009 | [2] 0.062 | [3] -0.014 | [4] 0.018 | [5] -0.03

CNOT6L (UniProt Q96LI5)
inactive: [1] -0.04 | [2] -0.002 | [3] 0.13 | [4] -0.008 | [5] -0.051

Reprinted from the entries so far (two entries):
CLNS1A (UniProt P54105)
inactive: [1] 0.009 | [2] 0.062 | [3] -0.014 | [4] 0.018 | [5] -0.03

CNOT6L (UniProt Q96LI5)
inactive: [1] -0.04 | [2] -0.002 | [3] 0.13 | [4] -0.008 | [5] -0.051

Next entries.

CLDND1 (UniProt Q9NY35)
inactive: [1] 0.03 | [2] -0.201 | [3] -0.071 | [4] 0.008 | [5] 0

CHPF (UniProt Q8IZ52)
inactive: [1] 0.15 | [2] 0.063 | [3] -0.174 | [4] -0.281 | [5] 0.138

CLPX (UniProt O76031)
inactive: [1] 0.011 | [2] -0.02 | [3] 0.013 | [4] -0.035 | [5] 0.048

CNN3 (UniProt Q15417)
inactive: [1] -0.015 | [2] 0.18 | [3] 0.079 | [4] 0.035 | [5] 0.03

CLCN7 (UniProt P51798)
inactive: [1] -0.018 | [2] 0.024 | [3] -0.054 | [4] 0.024 | [5] -0.032

CIT isoform 4 (UniProt O14578)
inactive: [1] -0.055 | [2] 0.002 | [3] 0.001 | [4] -0.011 | [5] 0.009

CNPY2 (UniProt Q9Y2B0)
inactive: [1] 0.016 | [2] 0.049 | [3] -0.012 | [4] 0.019 | [5] -0.04

CMTM6 (UniProt Q9NX76)
inactive: [1] -0.005 | [2] 0.139 | [3] 0.127 | [4] 0.036 | [5] 0.028
